Experimental data as given in paper PMC9714371, “Haemophilus influenzae Protein D antibody suppression in a multi‐component vaccine formulation” (FEBS Open Bio, 2022).
Results are given in words; binding and its absence hold for the method and conditions named. For some assays here: In cells and extracts the contact can be indirect. Tags and fused reporters may be left off the sequences shown.

Columns and labels:
[1] = target: T1, His‐tagged Protein D (non‐lipidated, N‐terminal signal sequence removed) (Haemophilus influenzae (NTHi)) (UniProt Q06282); assay: pull-down; cobalt affinity purification with aluminum hydroxide (500 μg/mL) added to the 1:1 mixture of E. coli lysates of non-His-tagged OMP26 and His-tagged PD; Talon column, flow-through, wash and 150 mM imidazole elution fractions on Coomassie-stained SDS/PAGE
T1 sequence: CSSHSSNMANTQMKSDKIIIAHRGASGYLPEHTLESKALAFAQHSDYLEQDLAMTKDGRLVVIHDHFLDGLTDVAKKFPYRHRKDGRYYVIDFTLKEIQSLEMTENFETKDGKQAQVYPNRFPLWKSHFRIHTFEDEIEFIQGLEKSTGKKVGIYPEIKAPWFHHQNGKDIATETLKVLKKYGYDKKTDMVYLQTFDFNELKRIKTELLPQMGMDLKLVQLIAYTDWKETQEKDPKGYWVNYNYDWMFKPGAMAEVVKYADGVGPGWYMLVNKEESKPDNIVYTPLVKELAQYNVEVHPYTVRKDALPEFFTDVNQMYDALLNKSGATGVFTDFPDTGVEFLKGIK

[2] = target: T1, His‐tagged Protein D (non‐lipidated, N‐terminal signal sequence removed) (Haemophilus influenzae (NTHi)); assay: pull-down; cobalt affinity purification: E. coli lysates of His-tagged PD and non-tagged OMP26 mixed 1:1, incubated with Talon cobalt beads 1 h at room temperature or overnight at 4 °C, eluted with 150 mM imidazole; read by Coomassie-stained SDS/PAGE and, in a repeat, by immunoblot with mouse antisera to PD and OMP26
[3] = target: T1, His‐tagged Protein D (non‐lipidated, N‐terminal signal sequence removed) (Haemophilus influenzae (NTHi)); assay: native MS; nano-electrospray native MS with ion mobility (Waters Synapt G2); His-tagged proteins in 200 mM ammonium acetate pH 6.8, 5 μM; PD alone, OMP26 alone, 1:1 mixture; both purified
[4] = target: T1, His‐tagged Protein D (non‐lipidated, N‐terminal signal sequence removed) (Haemophilus influenzae (NTHi)); assay: SEC; HiLoad 16/600 Superdex 200 pg in PBS, 0.5 mL/min; Talon-purified PD alone, OMP26 alone, or 1:1 mixture incubated 1 h at 4 °C; peak fractions on Coomassie-stained SDS/PAGE; both purified
[5] = target: T2, His‐tagged outer membrane protein 26 (OMP26) (Haemophilus influenzae (NTHi)) (UniProt Q57483); assay: pull-down; cobalt affinity purification: E. coli lysates of His-tagged OMP26 and non-tagged PD mixed 1:1, with low imidazole (15 mM) to reduce non-specific binding of non-tagged PD to the Talon beads; eluted with 150 mM imidazole; read by Coomassie-stained SDS/PAGE and, in a repeat, by immunoblot
T2 sequence: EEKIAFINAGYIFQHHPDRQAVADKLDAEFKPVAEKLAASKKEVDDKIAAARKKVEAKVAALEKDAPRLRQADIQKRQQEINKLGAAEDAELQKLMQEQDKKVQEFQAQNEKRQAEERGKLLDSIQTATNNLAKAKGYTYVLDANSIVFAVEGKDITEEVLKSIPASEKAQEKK

B1: Non‐His‐tagged outer membrane protein 26 (OMP26) (protein, UniProt Q57483 24-197)
chain: T2 sequence
[1]
  binding: no binding
[2]
  binding: no binding

B2: His‐tagged outer membrane protein 26 (OMP26) (natural protein)
chain: T2 sequence
notes: OMP26, 26-kDa outer membrane protein of Haemophilus influenzae, homolog of E. coli Skp; Gene bought from GenScript; Predominantly trimers by native MS and SEC, with hexamers in low abundance; also called His‐tagged OMP26; source: E. coli BL‐21*, IPTG induced; not shown: His6, N-terminal, kept
[3]
  binding: no binding (tested: 5 μM)
[4]
  binding: no binding

B3: His‐tagged Protein D (non‐lipidated, N‐terminal signal sequence removed) (natural protein)
chain: T1 sequence
notes: Gene bought from GenScript, in pET21a; also called PD; His‐tagged PD; source: E. coli BL‐21*, IPTG induced; not shown: His6, N-terminal, kept
[5]
  binding: no binding
